Test results as given in US20220169714A1 (published 2022).
These are yes or no findings as the source states them, for the method shown. Some results given as binding are weak or reduced against the parent protein; the word gives no strength. Blank lines part the entries; values can stand above or below the binder they belong to.

Amino acid sequences for entries named in this document (tags omitted). Residues count along the entry.
UniProt P02769, residues 25-607: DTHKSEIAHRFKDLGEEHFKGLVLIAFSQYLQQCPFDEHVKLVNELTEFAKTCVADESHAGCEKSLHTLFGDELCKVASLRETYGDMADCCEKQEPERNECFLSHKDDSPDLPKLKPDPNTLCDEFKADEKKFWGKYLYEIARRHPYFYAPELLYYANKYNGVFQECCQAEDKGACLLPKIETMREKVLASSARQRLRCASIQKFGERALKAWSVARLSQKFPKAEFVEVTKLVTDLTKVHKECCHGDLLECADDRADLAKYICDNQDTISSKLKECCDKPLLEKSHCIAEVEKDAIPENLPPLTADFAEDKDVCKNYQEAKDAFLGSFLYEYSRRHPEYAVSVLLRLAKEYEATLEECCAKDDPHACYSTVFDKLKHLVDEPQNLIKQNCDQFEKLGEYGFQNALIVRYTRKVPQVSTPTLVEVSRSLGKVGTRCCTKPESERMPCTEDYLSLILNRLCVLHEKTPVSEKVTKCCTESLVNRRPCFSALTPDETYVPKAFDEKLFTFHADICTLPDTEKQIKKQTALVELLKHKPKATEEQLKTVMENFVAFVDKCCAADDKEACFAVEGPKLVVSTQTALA

Key:
[1] = molecular target: T1, recombinant human CXCL1 protein (human, UniProt P09341 35-107); assay: ELISA and Western blot
T1 sequence: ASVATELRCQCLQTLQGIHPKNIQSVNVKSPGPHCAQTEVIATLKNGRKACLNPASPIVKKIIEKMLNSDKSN

BSA (bovine) = BSA (bovine) (UniProt P02769); assay: ELISA on coated BSA, scFv at 10 and 2 ug/mL, anti-Myc HRP, TMB
[2] = molecular target: T1, recombinant human CXCL1 protein; assay: ELISA (CXCL1 coated at 30 ng per well, anti-Myc HRP) and Western blot
[3] = molecular target: T1, recombinant human CXCL1 protein; assay: ELISA on coated human CXCL1 against coated BSA, scFv at 10 and 2 ug/mL, anti-Myc HRP, TMB
Protocol: The human CxCL1 protein was coated onto 96-well, 30 ng for well at 4° C. overnight. The plate was blocked by 3% skim milk in PBS 2 h at room temperature. The plate was washed 3 times with PBST and applied anti-human CXCL1 humanized version scFv antibodies at different dilution concentration. The anti-Myc mouse monoclonal antibody with HRP conjugate antibody was applied and developed with TMB solution.

[4] = molecular target: T1, recombinant human CXCL1 protein; assay: Western blot of human CXCL1 (lane 1) probed with HumBB2401scFv, anti-c-Myc antibody and HRP secondary, TMB
[5] = molecular target: T1, recombinant human CXCL1 protein; assay: Western blot of human CXCL1 (lanes 1 and 2) probed with Hum2401 IgG, anti-human (H+L) HRP, TMB
[6] = molecular target: T1, recombinant human CXCL1 protein; assay: Western blot of human CXCL1 (lanes 1 and 2) probed with HumBB2401 IgG, anti-human (H+L) HRP, TMB

B1: HumBB2401 scFv (humanized version 1) (scFv)
scFv: QVQLVQSGAEVKKPGASVKLSCKASGYTFTSYYIYWVRQAPGQGLEWIGEIDPSHGGPTFNEKFKNRATLTVDKSKSTAYMELSSLRSEDTAVYYCTRESGTGAMDYWGQGTLVTVSSGGGGSGGGGSGGGARGGGGSDIQMTQSPSSLSASVGDRATISCKASQSVDYDGDSYVNWYQQKPGKAPKLLIYAASNLESGIPSRFSGSGSGTDFTLTISSLQPEDFATYYCQQSSEDPWTFGQGTKVEIKR
binding [1]: binds
binding (BSA (bovine)): no binding (tested: 10 ug/mL)
binding [2]: binds
binding [3]: binds
binding [4]: binds

B2: Hum2401 IgG antibody (antibody, V domains shown)
VH: QVQLVESGGGLVQPGGSLRLSCKASGYTFTSYYIYWVRQAPGKGLEWIGEIDPSHGGPTFNEKFKNRFTISRDNSKNTLYLQMNSLRAEDTAVYYCTRESGTGAMDYWGQGTLVTVSS
VL: DIQMTQSPSSLSASVGDRATISCKASQSVDYDGDSYVNWYQQKPGKAPKLLIYAASNLESGIPSRFSGSGSGTDFTLTISSLQPEDFATYYCQQSSEDPWTFGQGTKVEIKR
binding [5]: binds

The remaining lines, values ahead:

binding [6]: binds
B3: HumBB2401 IgG antibody (antibody, V domains shown)
VH: QVQLVQSGAEVKKPGASVKLSCKASGYTFTSYYIYWVRQAPGQGLEWIGEIDPSHGGPTFNEKFKNRATLTVDKSKSTAYMELSSLRSEDTAVYYCTRESGTGAMDYWGQGTLVTVSS
VL: DIQMTQSPSSLSASVGDRATISCKASQSVDYDGDSYVNWYQQKPGKAPKLLIYAASNLESGIPSRFSGSGSGTDFTLTISSLQPEDFATYYCQQSSEDPWTFGQGTKVEIKR

binding (BSA (bovine)): no binding (tested: 10 ug/mL)
B4: HUM2401-ScFv_1 (humanized version 2) (scFv)
scFv: QVQLVESGGGLVQPGGSLRLSCKASGYTFTSYYIYWVRQAPGKGLEWIGEIDPSHGGPTFNEKFKNRFTISRDNSKNTLYLQMNSLRAEDTAVYYCTRESGTGAMDYWGQGTLVTVSSGGGGSGGGGSGGGARGGGGSDIQMTQSPSSLSASVGDRATISCKASQSVDYDGDSYVNWYQQKPGKAPKLLIYAASNLESGIPSRFSGSGSGTDFTLTISSLQPEDFATYYCQQSSEDPWTFGQGTKVEIKR
notes: Detected through a c-Myc tag; also called HumH2401scFv; Hum HL2401_scFv
